From article PMC6748103, “SPOP suppresses prostate cancer through regulation of CYCLIN E1 stability” (Cell Death and Differentiation, 2018)
No constants are given. Whether binding was seen depends on the method and setting. In cells and extracts the contact can be indirect. Some results given as binding are weak or reduced against the parent protein; the word gives no strength.

By UniProt entry, the sequences of proteins in these tests, tags left out. Where a name states a change or a piece, a line headed by the entry shows the natural chain unless it says otherwise.
UniProt P24864: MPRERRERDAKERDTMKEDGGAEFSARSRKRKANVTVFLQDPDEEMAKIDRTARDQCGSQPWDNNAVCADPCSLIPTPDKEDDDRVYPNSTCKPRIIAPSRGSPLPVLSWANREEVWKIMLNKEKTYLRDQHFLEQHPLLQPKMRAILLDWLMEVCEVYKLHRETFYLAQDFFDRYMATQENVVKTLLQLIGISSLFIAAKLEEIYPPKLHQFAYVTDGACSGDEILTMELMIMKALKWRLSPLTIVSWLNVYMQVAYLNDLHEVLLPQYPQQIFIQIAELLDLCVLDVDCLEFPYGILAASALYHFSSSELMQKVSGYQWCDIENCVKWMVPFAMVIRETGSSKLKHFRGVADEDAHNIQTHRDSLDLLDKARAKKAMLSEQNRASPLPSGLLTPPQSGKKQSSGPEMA
UniProt O43791: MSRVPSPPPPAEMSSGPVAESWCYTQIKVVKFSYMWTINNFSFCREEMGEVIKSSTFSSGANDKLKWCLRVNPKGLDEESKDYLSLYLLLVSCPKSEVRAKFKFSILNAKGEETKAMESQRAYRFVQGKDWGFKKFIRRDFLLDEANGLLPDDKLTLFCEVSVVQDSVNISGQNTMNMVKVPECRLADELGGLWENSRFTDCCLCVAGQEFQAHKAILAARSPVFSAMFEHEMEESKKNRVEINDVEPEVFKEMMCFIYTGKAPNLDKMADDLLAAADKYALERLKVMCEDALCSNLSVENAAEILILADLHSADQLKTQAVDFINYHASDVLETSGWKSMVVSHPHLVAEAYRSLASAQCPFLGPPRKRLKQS

Assays:
[1] = molecular target: endogenous CYCLIN E1 (human (endogenous in DU145)) (UniProt P24864); assay: co-IP; DU145 lysates after DMSO or MG132 (10 mM) for 12 h; co-IP with CYCLIN E1 antibody; endogenous proteins
Flag-tagged CYCLIN E1 [2] = molecular target: Flag-tagged CYCLIN E1 (UniProt P24864); assay: co-IP; immunoprecipitation of truncated forms of CYCLIN E1 and SPOP (Sup. Fig. 1C, D); cells and antibodies not given
Flag-tagged CYCLIN E1 [3] = molecular target: Flag-tagged CYCLIN E1 (UniProt P24864); assay: co-IP; cells transfected with the indicated plasmids; Flag-CCNE1 and HA-SPOP (MATH domain), with or without expressed CDK2
Flag-tagged CYCLIN E1 [4] = molecular target: Flag-tagged CYCLIN E1 (UniProt P24864); assay: co-IP; HEK293 cells transfected with the indicated plasmids for 24 h, then 10 μM MG132 for 12 h; co-IP with anti-Flag or anti-HA antibodies

endogenous SPOP (from UniProt O43791 1-374)
binding [1]: binds

HA-SPOP (MATH domain) (from UniProt O43791 31-161) (domain or fragment)
binding (Flag-tagged CYCLIN E1 [2]): binds
binding (Flag-tagged CYCLIN E1 [3]): binds

HA-SPOP (from UniProt O43791 1-374)
binding (Flag-tagged CYCLIN E1 [4]): binds
